Measurements reported in the supplement of paper PMC12889115.
This is one part of the list. These are raw signals, not scaled to a control.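 In the initial screen, polymyxin B was used at a concentration that permeabilizes Salmonella's outer membrane but not its inner membrane. Maximum growth was set by DMSO wells with or without polymyxin B. Since plates varied, data were ranked per plate, and compounds giving the lowest OD600 advanced as hits.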

System: Salmonella enterica serovar Typhimurium SL1344
Test: bacterial growth OD600 after 18 h with compound and polymyxin B; higher = more bacterial growth (less inhibition)
Conditions: 50 µM, Mueller-Hinton broth

| Compound | bacterial growth OD600 (polymyxin B 1 µg/mL) | bacterial growth OD600 (polymyxin B 0.75 µg/mL) |
| --- | --- | --- |
| CCOc1cc(CN2CCCC(CNC(=O)c3cccs3)C2)ccc1OC (centres undefined) | 0.958 | – |
| O=C1N(CCc2ccccc2)C[C@@H]2C[C@@H](c3ccccc3)N3CCC[C@@]123 | 0.997 | – |
| COc1ccc(C(=O)NCCN2Cc3ccccc3OC(c3ccccc3)C2)c(OC)c1 (centres undefined) | – | 0.015 |
| O=C(c1cscn1)N1CCC2(CCCN(Cc3ccc(F)c(F)c3)C2=O)C1 (centres undefined) | 0.924 | – |
| Cc1ccccc1-c1ccc(CN(C)Cc2nc(-c3ccccc3NS(C)(=O)=O)oc2C)cc1 | – | 0.748 |
| CCn1cc(CNC(=O)c2ccc(OC)c(OC3CCN(C(C)C)CC3)c2)cn1 | 1.04 | – |
| O=C(CCc1ccccc1)N1CCCC(N2CCN(c3cccc(Cl)c3)CC2)C1 (centres undefined) | 0.686 | – |
| COc1cccc(-c2nc3ccc(C(=O)NCc4cc(C)n(C)n4)cc3o2)c1 | 1.1 | – |
| COc1ccc(CN2CCN(Cc3cc(OC)cc(OC)c3)C(CCO)C2)cc1 (centres undefined) | 0.845 | – |
